From US7034005B2, “Use of agent for suppressing infection and proliferation of human immunodeficiency syndrome virus” (The Kitasato Institute, priority 2002, dated 2006)
Some of these results come from one statement about several compounds together. At least one compound was matched to its structure with a doubt left.

System: HIV-1BAL strain in M type macrophage (M-MΦ) derived from human monocytes
Test: Proliferation of HIV-1 in M-MΦ: p24 protein in culture supernatant by sandwich ELISA
Format: cell-based
Conditions: for concentration at which viral generation was completely inhibited in M-MΦ: HIV-1BAL (FIG. 16); for suppressive effect on proliferation of virus: day 14 after incubation, agent added only in the primary culture medium after contact infection
Method: Macrophages derived from monocytes were prepared by culturing the recovered monocytes in the presence of M-CSF (macrophage colony-stimulating factor) (10^4 U/ml, provided by Morinaga Milk Co.), granulocytes and granulocyte-macrophage colony-stimulating factor, GM-CSF) (500 U/ml, provided by Japan Scheling Plough Co., Osaka, or purchased from R & S Genzyme-TECHNE Inc.) with RPMI1640 medium added with FCS10% (Nissui Seiyaku Co., Tokyo) for 7–8 days.
The macrophage prepared by differential induction of M-CSF from human monocytes is designated as M type macrophage (M type MΦ or M-MΦ) and the macrophage prepared by differential induction of GM-CSF from human monocytes is designated as GM type macrophage (GM type MΦ or GM-MΦ) Further, alveolar macrophage (alveolar MΦ or A-MΦ) was prepared as follows. Cells in the alveolar lavage liquid obtained from the alveolar lavage of healthy volunteers were recovered, suspended and adhered to plastics, then the non-adhered cells were washed out and the remained adhered cells were designated as the alveolar MΦ.
Infection of HIV-1 to macrophage was performed as follows. Macrophage directed viral strains, HIV-1JR-FL and HIV-1BAL, were infected for 2 hours in contact with M-MΦ, GM-MΦ and A-MΦ (adjusted to 2.5×10^5/well, Flacon No3043: Becton Dickinson Labware, Inc. U.S.)at low concentration (p24 antigen titer 50 ng/ml, TCID50=3000/ml virus to final concentration at 100 pg/ml), and non-adsorbed virus to the macrophage was washed out, and cultured with adding fresh medium. In case of the medium with M-MΦ, M-CSF was added (10^4 U/ml), and that of the medium with GM-MΦ, GM-CSF was added (500 U/ml).
Proliferation of virus was examined with the released viral particles in the culture supernatant after the infection by the sandwich ELISA using two types of anti-p24 antibody (Nu24 and 10B5^13). The following JAM62 and JAM65 were used as LTR (HIV long terminal repeat)-gap gene primer. The following JAM63 and JAM 64 were used as the internal primer for the nested PCR. • JAM62: • 5′-[…]-3′ (SEQ ID NO: 1) • JAM65: • 5′-[…]-3′ (SEQ ID NO: 2) • JAM63: • 5′-GTGTOACTCTGGTAACTAGAGATCC-3′ (SEQ ID NO: 3) • JAM64: • 5′-[…]-3′ (SEQ ID NO: 4) (1-4) Assay of Expression of Tyrosine Kinase Hck Protein and Transcription Factor C/EBPβ Protein
In order to show growth suppression effect of the present invention, among macrolide derivatives, EM, EM201, EM202, EM703, CAM, EM722, EM730, EM732, EM736, EM734, EM735, EM747, EM748, EM743, EM746, EM750 or EM751 was dissolved in DMSO with each 100 mM concentration, and used in dilution with the medium thereafter. A control group was M-MΦ treated only with DMSO used for dissolving macrolide derivatives. […]

| Compound | concentration at which viral generation was completely inhibited in M-MΦ | suppressive effect on proliferation of virus |
| --- | --- | --- |
| 11-(1′-hydroxypropyl)-3-[2,6-dideoxy-3-C-methyl-α-L-ribo-hexopyranosyl]oxy]-5-[(3,4,6-trideoxy-3-(dimethylamino)-β-D-xylo-hexopyranosyl)oxy]-2,4,6,8,11,14-hexamethyl-10,13,15-tri-oxatricyclo[9.2.1.1.^9.6]-pentadecane-1-one [EM201] | ≥ 3 µM | ≥ 95% |
| CCC(O)C(C)(O)C1OC(=O)C(C)C(OC2CC(C)(OC)C(O)C(C)O2)C(C)C(OC2OC(C)CC(NC)C2O)C2(C)CC(C)=C(O2)C1C (stereo not shown) [EM703, de(3′-N-methyl)-8,9-anhydro-pseudoerythromycin A 6,9-hemiketal] | ≥ 3 µM | ≥ 95% |
